Assay results published in patent publication US20240285634A1, “COMPOUND AND METHOD FOR TREATING CHEMOTHERAPY-ASSOCIATED GASTROINTESTINAL SIDE EFFECTS” (ONQUALITY PHARMACEUTICALS CHINA LTD., priority 2021, published 2024).
This continues a long series; more values of the same kind are listed elsewhere.

System: Chemotherapeutic agent-caused constipation models of Balb/c mice
Test: Relieving effect on constipation caused by a chemotherapeutic agent (Examples 202-364)
Assay type: in vivo
Text: Construction of mouse animal models: Chemotherapeutic agent-caused constipation models of Balb/c mice were constructed according to the administration mode and frequency of the chemotherapeutic agent as shown in Table 4. […] Thus, chemotherapeutic agent-caused constipation models of mice are very good models to mimic constipation caused by the chemotherapeutic agent.
Balb/c mice were fed for 1 week, and then divided into groups. The experiment was divided into a control group, a chemotherapeutic agent group, and a group of the compound as shown in Formula I, each of which comprised 10 mice, to perform the administration experiment, for which the administration dosage, mode, time and frequency were shown in Table 4. The control group: being injected or intragastrically administered with the same solvent as that used in the group of the compound as shown in Formula I (the administration mode and time were shown in Table 4), and then being injected or intragastrically administered with the same solvent as that used in the chemotherapeutic agent group (the administration mode was shown in Table 4); the chemotherapeutic agent group: being injected or intragastrically administered with the same solvent as that used in the group of the compound as shown in Formula I (the administration mode and time was shown in Table 4), and then being injected or intragastrically administered with the chemotherapeutic agent (the type, administration mode and dosage were shown in Table 4); the group of the compound as shown in Formula I: being injected or intragastrically administered with the compound as shown in Formula I (the administration mode and time was shown in Table 4), and then being administered with the chemotherapeutic agent (the administration mode and dosage were shown in Table 4).
The feces reduction rate was calculated with reference to the method of Ji Eun Kim (Lab Anim Res. 2016 December; 32(4): 231-240.). Feces reduction rate (%)=(the control group−the chemotherapeutic agent group or the group of the compound as shown in Formula I)/the control group*100%
It is regarded as effective remission when the feces reduction rate of mice in the group of the compound as shown in Formula I is reduced compared with that in the chemotherapeutic agent group.
The feces amount of mice within 3 hours was observed and recorded every day. At the end of the experiment, the number of mice in the group of the compound as shown in Formula I whose feces reduction rate was lower than that of mice in the chemotherapeutic agent group was recorded. Table 4 lists various animal experiment combinations of chemotherapeutic agents and the compound as shown in Formula I, as well as the corresponding experimental results.

## CN1CCN(c2ccc(Nc3ncc4cc5n(c4n3)C3(CCCCC3)CNC5=O)nc2)CC1 [Compound I, Trilaciclib]
Example 241, Fluorouracil (5-Fu) intravenous injection 250 mg/kg single, compound intraperitoneal injection 100 mg/kg single, 48 h before chemotherapeutic agent, cycle 10 days
  Relative remission rate (%): 0%
Example 249, Fluorouracil (5-Fu) oral administration 300 mg/kg single, compound intramuscular injection 100 mg/kg single, 0.5 h before chemotherapeutic agent, cycle 7 days
  Relative remission rate (%): 60%
Example 250, Fluorouracil (5-Fu) intramuscular injection 175 mg/kg single, compound oral administration 150 mg/kg single, 8 h before chemotherapeutic agent, cycle 7 days
  Relative remission rate (%): 50%
Example 251, Oxaliplatin intraperitoneal injection 25 mg/kg single, compound intraperitoneal injection 100 mg/kg single, 0.5 h before chemotherapeutic agent, cycle 10 days
  Relative remission rate (%): 20%
Example 252, Oxaliplatin intraperitoneal injection 25 mg/kg single, compound intraperitoneal injection 100 mg/kg single, 1 h before chemotherapeutic agent, cycle 10 days
  Relative remission rate (%): 20%
Example 253, Oxaliplatin intraperitoneal injection 25 mg/kg single, compound intraperitoneal injection 100 mg/kg single, 2 h before chemotherapeutic agent, cycle 10 days
  Relative remission rate (%): 40%
Example 254, Oxaliplatin intraperitoneal injection 25 mg/kg single, compound intraperitoneal injection 100 mg/kg single, 3 h before chemotherapeutic agent, cycle 10 days
  Relative remission rate (%): 40%
Example 255, Oxaliplatin intraperitoneal injection 25 mg/kg single, compound intraperitoneal injection 100 mg/kg single, 4 h before chemotherapeutic agent, cycle 10 days
  Relative remission rate (%): 50%
Example 256, Oxaliplatin intraperitoneal injection 25 mg/kg single, compound intraperitoneal injection 100 mg/kg single, 5 h before chemotherapeutic agent, cycle 10 days
  Relative remission rate (%): 50%
Example 257, Oxaliplatin intraperitoneal injection 25 mg/kg single, compound intraperitoneal injection 100 mg/kg single, 6 h before chemotherapeutic agent, cycle 10 days
  Relative remission rate (%): 60%
Example 258, Oxaliplatin intraperitoneal injection 25 mg/kg single, compound intraperitoneal injection 100 mg/kg single, 7 h before chemotherapeutic agent, cycle 10 days
  Relative remission rate (%): 60%
Example 259, Oxaliplatin intraperitoneal injection 25 mg/kg single, compound intraperitoneal injection 100 mg/kg single, 8 h before chemotherapeutic agent, cycle 10 days
  Relative remission rate (%): 30%
Example 260, Oxaliplatin intraperitoneal injection 25 mg/kg single, compound intraperitoneal injection 100 mg/kg single, 9 h before chemotherapeutic agent, cycle 10 days
  Relative remission rate (%): 40%
Example 261, Oxaliplatin intraperitoneal injection 25 mg/kg single, compound intraperitoneal injection 100 mg/kg single, 10 h before chemotherapeutic agent, cycle 10 days
  Relative remission rate (%): 40%
Example 262, Oxaliplatin intraperitoneal injection 25 mg/kg single, compound intraperitoneal injection 100 mg/kg single, 11 h before chemotherapeutic agent, cycle 10 days
  Relative remission rate (%): 50%
Example 263, Oxaliplatin intraperitoneal injection 25 mg/kg single, compound intraperitoneal injection 100 mg/kg single, 12 h before chemotherapeutic agent, cycle 10 days
  Relative remission rate (%): 50%
Example 264, Oxaliplatin intraperitoneal injection 25 mg/kg single, compound intraperitoneal injection 100 mg/kg single, 14 h before chemotherapeutic agent, cycle 10 days
  Relative remission rate (%): 30%
Example 265, Oxaliplatin intraperitoneal injection 25 mg/kg single, compound intraperitoneal injection 100 mg/kg single, 16 h before chemotherapeutic agent, cycle 10 days
  Relative remission rate (%): 40%
Example 266, Oxaliplatin intraperitoneal injection 25 mg/kg single, compound intraperitoneal injection 100 mg/kg single, 18 h before chemotherapeutic agent, cycle 10 days
  Relative remission rate (%): 60%
Example 267, Oxaliplatin intraperitoneal injection 25 mg/kg single, compound intraperitoneal injection 100 mg/kg single, 20 h before chemotherapeutic agent, cycle 10 days
  Relative remission rate (%): 30%
Example 268, Oxaliplatin intraperitoneal injection 25 mg/kg single, compound intraperitoneal injection 100 mg/kg single, 22 h before chemotherapeutic agent, cycle 10 days
  Relative remission rate (%): 30%
Example 269, Oxaliplatin intraperitoneal injection 25 mg/kg single, compound intraperitoneal injection 100 mg/kg single, 24 h before chemotherapeutic agent, cycle 10 days
  Relative remission rate (%): 40%
Example 270, Oxaliplatin intraperitoneal injection 25 mg/kg single, compound intraperitoneal injection 100 mg/kg single, 48 h before chemotherapeutic agent, cycle 10 days
  Relative remission rate (%): 0%
Example 275, Oxaliplatin intravenous injection 25 mg/kg single, compound intravenous injection 150 mg/kg single, 0.5 h before chemotherapeutic agent, cycle 7 days
  Relative remission rate (%): 30%
Example 276, Oxaliplatin intravenous injection 25 mg/kg single, compound intravenous injection 150 mg/kg single, 4 h before chemotherapeutic agent, cycle 7 days
  Relative remission rate (%): 50%
Example 277, Oxaliplatin intravenous injection 25 mg/kg single, compound intravenous injection 150 mg/kg single, 8 h before chemotherapeutic agent, cycle 7 days
  Relative remission rate (%): 50%
Example 278, Oxaliplatin intravenous injection 25 mg/kg single, compound intravenous injection 150 mg/kg single, 12 h before chemotherapeutic agent, cycle 7 days
  Relative remission rate (%): 40%
Example 279, Oxaliplatin intravenous injection 25 mg/kg single, compound intravenous injection 150 mg/kg single, 16 h before chemotherapeutic agent, cycle 7 days
  Relative remission rate (%): 40%
Example 280, Oxaliplatin intravenous injection 25 mg/kg single, compound intravenous injection 150 mg/kg single, 20 h before chemotherapeutic agent, cycle 7 days
  Relative remission rate (%): 60%
Example 281, Oxaliplatin intravenous injection 25 mg/kg single, compound intravenous injection 150 mg/kg single, 24 h before chemotherapeutic agent, cycle 7 days
  Relative remission rate (%): 60%
Example 282, Oxaliplatin intravenous injection 25 mg/kg single, compound intravenous injection 150 mg/kg single, 48 h before chemotherapeutic agent, cycle 7 days
  Relative remission rate (%): 0%
Example 286, Irinotecan (CPT-11) intraperitoneal injection 260 mg/kg single, compound intravenous injection 150 mg/kg single, 0.5 h before chemotherapeutic agent, cycle 8 days
  Relative remission rate (%): 40%
